According to US9487515B2, “Compounds modulating c-fms and/or c-kit activity and uses therefor” (Plexxikon Inc., priority 2006, dated 2016):
Some entries share one result that the patent states for a list of compounds.

Each compound was assayed against Fms (UniProt P07333) (assay: Fms assays of Examples 40 or 41 (AlphaScreen kinase assays at 10 and 100 μM ATP, 33P-ATP filter assay, RAW264.7 pFMS and M-NFS-60 M-CSF-stimulated proliferation)). Conditions: in at least one of the Fms assays described in Examples 40 or 41.

IC50, < 1000 nM:
Cc1cc(CNc2ccc(Cc3c[nH]c4ncccc34)cn2)nn1C [P-0131, (1,5-Dimethyl-1H-pyrazol-3-ylmethyl)-[5-(1H-pyrrolo[2,3-b]pyridin-3-ylmethyl)-pyridin-2-yl]-amine]
Fc1nc(NCc2ccc(Cl)cc2)ccc1Cc1c[nH]c2ncc(Cl)cc12 [P-0132, (4-Chloro-benzyl)-[5-(5-chloro-1H-pyrrolo[2,3-b]pyridin-3-ylmethyl)-6-fluoro-pyridin-2-yl]-amine]
Cc1nn(CC(=O)c2ccccc2)c(C)c1Cc1c[nH]c2ncccc12 [P-0134, 2-[3,5-Dimethyl-4-(1H-pyrrolo[2,3-b]pyridin-3-ylmethyl)-pyrazol-1-yl]-1-phenyl-ethanone]
COc1ccc(CNC(=O)n2nc(C)c(Cc3c[nH]c4ncccc34)c2C)cc1 [P-0135, 3,5-Dimethyl-4-(1H-pyrrolo[2,3-b]pyridin-3-ylmethyl)-pyrazole-1-carboxylic acid 4-methoxy-benzylamide]
Cc1nn(C(=O)NCc2ccccc2Cl)c(C)c1Cc1c[nH]c2ncccc12 [P-0136, 3,5-Dimethyl-4-(1H-pyrrolo[2,3-b]pyridin-3-ylmethyl)-pyrazole-1-carboxylic acid 2-chloro-benzylamide]
Cc1nn(C(=O)NCc2ccccc2F)c(C)c1Cc1c[nH]c2ncccc12 [P-0137, 3,5-Dimethyl-4-(1H-pyrrolo[2,3-b]pyridin-3-ylmethyl)-pyrazole-1-carboxylic acid 2-fluoro-benzylamide]
Cc1nn(C(=O)NCc2ccc(Cl)cc2)c(C)c1Cc1c[nH]c2ncccc12 [P-0140, 3,5-Dimethyl-4-(1H-pyrrolo[2,3-b]pyridin-3-ylmethyl)-pyrazole-1-carboxylic acid 4-chloro-benzylamide]
COc1ccc(CCNC(=O)n2nc(C)c(Cc3c[nH]c4ncccc34)c2C)cc1 [P-0141, 3,5-Dimethyl-4-(1H-pyrrolo[2,3-b]pyridin-3-ylmethyl)-pyrazole-1-carboxylic acid [2-(4-methoxy-phenyl)-ethyl]-amide]
COc1cccc(CNC(=O)n2nc(C)c(Cc3c[nH]c4ncccc34)c2C)c1 [P-0142, 3,5-Dimethyl-4-(1H-pyrrolo[2,3-b]pyridin-3-ylmethyl)-pyrazole-1-carboxylic acid 3-methoxy-benzylamide]
Cc1nc(-c2ccc(C(F)(F)F)cc2)sc1Cn1nc(C)c(Cc2c[nH]c3ncccc23)c1C [P-0143, 3-{3,5-Dimethyl-1-[4-methyl-2-(4-trifluoromethyl-phenyl)-thiazol-5-ylmethyl]-1H-pyrazol-4-ylmethyl}-1H-pyrrolo[2,3-b]pyridine]
Cc1nc(-c2ccccc2)sc1Cn1nc(C)c(Cc2c[nH]c3ncccc23)c1C [P-0144, 3-[3,5-Dimethyl-1-(4-methyl-2-phenyl-thiazol-5-ylmethyl)-1H-pyrazol-4-ylmethyl]-1H-pyrrolo[2,3-b]pyridine]
COc1ccccc1CNC(=O)n1nc(C)c(Cc2c[nH]c3ncccc23)c1C [P-0145, 3,5-Dimethyl-4-(1H-pyrrolo[2,3-b]pyridin-3-ylmethyl)-pyrazole-1-carboxylic acid 2-methoxy-benzylamide]
Cc1nn(C(=O)NCCc2ccc(Cl)cc2Cl)c(C)c1Cc1c[nH]c2ncccc12 [P-0146, 3,5-Dimethyl-4-(1H-pyrrolo[2,3-b]pyridin-3-ylmethyl)-pyrazole-1-carboxylic acid [2-(2,4-dichloro-phenyl)-ethyl]-amide]
Cc1nn(C(=O)NCCc2ccc(F)cc2)c(C)c1Cc1c[nH]c2ncccc12 [P-0147, 3,5-Dimethyl-4-(1H-pyrrolo[2,3-b]pyridin-3-ylmethyl)-pyrazole-1-carboxylic acid [2-(4-fluoro-phenyl)-ethyl]-amide]
Cc1nn(C(=O)NCCc2ccccc2F)c(C)c1Cc1c[nH]c2ncccc12 [P-0148, 3,5-Dimethyl-4-(1H-pyrrolo[2,3-b]pyridin-3-ylmethyl)-pyrazole-1-carboxylic acid [2-(2-fluoro-phenyl)-ethyl]-amide]
Cc1nn(C(=O)N[C@@H](C)c2ccccc2)c(C)c1Cc1c[nH]c2ncccc12 [P-0149, 3,5-Dimethyl-4-(1H-pyrrolo[2,3-b]pyridin-3-ylmethyl)-pyrazole-1-carboxylic acid ((S)-1-phenyl-ethyl)-amide]
Cc1nn(C(=O)NCc2cccc(F)c2)c(C)c1Cc1c[nH]c2ncccc12 [P-0150, 3,5-Dimethyl-4-(1H-pyrrolo[2,3-b]pyridin-3-ylmethyl)-pyrazole-1-carboxylic acid 3-fluoro-benzylamide]
Cc1nn(C(=O)NCc2ccc(F)cc2)c(C)c1Cc1c[nH]c2ncccc12 [P-0151, 3,5-Dimethyl-4-(1H-pyrrolo[2,3-b]pyridin-3-ylmethyl)-pyrazole-1-carboxylic acid 4-fluoro-benzylamide]
Cc1ccc(CNC(=O)n2nc(C)c(Cc3c[nH]c4ncccc34)c2C)cc1 [P-0152, 3,5-Dimethyl-4-(1H-pyrrolo[2,3-b]pyridin-3-ylmethyl)-pyrazole-1-carboxylic acid 4-methyl-benzylamide]
Cc1ccccc1CNC(=O)n1nc(C)c(Cc2c[nH]c3ncccc23)c1C [P-0153, 3,5-Dimethyl-4-(1H-pyrrolo[2,3-b]pyridin-3-ylmethyl)-pyrazole-1-carboxylic acid 2-methyl-benzylamide]
Fc1ccc(Cc2c[nH]c3ncccc23)c(F)n1 [P-0154, 3-(2,6-difluoro-pyridin-3-ylmethyl)-1H-pyrrolo[2,3-b]pyridine]
Fc1ccc(CNc2nc(Cl)c(Cc3c[nH]c4ncccc34)s2)cc1 [P-0156, [4-Chloro-5-(1H-pyrrolo[2,3-b]pyridin-3-ylmethyl)-thiazol-2-yl]-(4-fluoro-benzyl)-amine]
Cc1nn(C(=O)NCCc2ccc(F)cc2)c(C)c1Cc1c[nH]c2ncc(Cl)cc12 [P-0157, 4-(5-Chloro-1H-pyrrolo[2,3-b]pyridin-3-ylmethyl)-3,5-dimethyl-pyrazole-1-carboxylic acid [2-(4-fluoro-phenyl)-ethyl]-amide]
Cc1nn(C(=O)NCc2ccc(F)cc2)c(C)c1Cc1c[nH]c2ncc(Cl)cc12 [P-0158, 4-(5-Chloro-1H-pyrrolo[2,3-b]pyridin-3-ylmethyl)-3,5-dimethyl-pyrazole-1-carboxylic acid 4-fluoro-benzylamide]
Cc1nn(C(=O)NCc2ccc(Cl)cc2)c(C)c1Cc1c[nH]c2ncc(Cl)cc12 [P-0159, 4-(5-Chloro-1H-pyrrolo[2,3-b]pyridin-3-ylmethyl)-3,5-dimethyl-pyrazole-1-carboxylic acid 4-chloro-benzylamide]
Cc1nn(C(=O)N[C@@H](C)c2ccc(F)cc2)c(C)c1Cc1c[nH]c2ncc(Cl)cc12 [P-0160, 4-(5-Chloro-1H-pyrrolo[2,3-b]pyridin-3-ylmethyl)-3,5-dimethyl-pyrazole-1-carboxylic acid [(S)-1-(4-fluoro-phenyl)-ethyl]-amide]
Clc1ccc(CNc2ccc(Cc3c[nH]c4ncccc34)c(Cl)n2)cc1 [P-0161, (4-Chloro-benzyl)-[6-chloro-5-(1H-pyrrolo[2,3-b]pyridin-3-ylmethyl)-pyridin-2-yl]-amine]
Cc1nc(NCc2ccc(F)cc2)sc1Cc1c[nH]c2ncccc12 [P-0163, (4-Fluoro-benzyl)-[4-methyl-5-(1H-pyrrolo[2,3-b]pyridin-3-ylmethyl)-thiazol-2-yl]-amine]
Clc1nc(NCc2cccnc2)sc1Cc1c[nH]c2ncccc12 [P-0164, [4-Chloro-5-(1H-pyrrolo[2,3-b]pyridin-3-ylmethyl)-thiazol-2-yl]-pyridin-3-ylmethyl-amine]
CCn1nc(NCc2ccc(F)cc2)cc1Cc1c[nH]c2ncccc12 [P-0165, [1-ethyl-5-(1H-pyrrolo[2,3-b]pyridin-3-ylmethyl)-1H-pyrazol-3-yl]-(4-fluoro-benzyl)-amine]
Clc1nc(NCc2ccccn2)sc1Cc1c[nH]c2ncccc12 [P-0167, [4-Chloro-5-(1H-pyrrolo[2,3-b]pyridin-3-ylmethyl)-thiazol-2-yl]-pyridin-2-ylmethyl-amine]
Clc1nc(NCc2ccncc2)sc1Cc1c[nH]c2ncccc12 [P-0168, [4-chloro-5-(1H-pyrrolo[2,3-b]pyridin-3-ylmethyl)-thiazol-2-yl]-pyridin-4-ylmethyl-amine]
Cn1nc(NCc2ccc(F)cc2)cc1Cc1c[nH]c2ncccc12 [P-0169, (4-Fluoro-benzyl)-[1-methyl-5-(1H-pyrrolo[2,3-b]pyridin-3-ylmethyl)-1H-pyrazol-3-yl]-amine]
Cn1nc(NCc2ccc(F)cc2)cc1Cc1c[nH]c2ncc(Cl)cc12 [P-0170, [5-(5-Chloro-1H-pyrrolo[2,3-b]pyridin-3-ylmethyl)-1-methyl-1H-pyrazol-3-yl]-(4-fluoro-benzyl)-amine]
Cc1cccc(CNc2nc(Cl)c(Cc3c[nH]c4ncccc34)s2)n1 [P-0171, [4-Chloro-5-(1H-pyrrolo[2,3-b]pyridin-3-ylmethyl)-thiazol-2-yl]-(6-methyl-pyridin-2-ylmethyl)-amine]
Cc1cc(CNc2nc(Cl)c(Cc3c[nH]c4ncccc34)s2)nn1C [P-0172, [4-Chloro-5-(1H-pyrrolo[2,3-b]pyridin-3-ylmethyl)-thiazol-2-yl]-(1,5-dimethyl-1H-pyrazol-3-ylmethyl)-amine]
FC(F)(F)c1ccc(CNc2nc(Cl)c(Cc3c[nH]c4ncccc34)s2)cn1 [P-0173, [4-Chloro-5-(1H-pyrrolo[2,3-b]pyridin-3-ylmethyl)-thiazol-2-yl]-(6-trifluoromethyl-pyridin-3-ylmethyl)-amine]
FC(F)(F)c1ccc(CNc2ccc(Cc3c[nH]c4ncccc34)c(Cl)n2)cn1 [P-0174, [6-Chloro-5-(1H-pyrrolo[2,3-b]pyridin-3-ylmethyl)-pyridin-2-yl]-(6-trifluoromethyl-pyridin-3-ylmethyl)-amine]
